# Reference: the supplement of paper PMC8728848
# This is one part of the list.
# How the values were obtained:
# Test in all cases: glycan array binding signal (z-score within array); higher = stronger binding
# Settings in all cases: glycan notation: IUPAC condensed, linker removed
# [1] = target: GlcNAc(b1-4)GlcNAc(b1-4)GlcNAc(b1-4)GlcNAc(b1-4)GlcNAc(b1-4)GlcNAc
# In short: (§1)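 Arrays were curated from the Consortium for Functional Glycomics database, 3228 in total, and kept only where the protein sequence was available. Binding is expressed as a within-array Z-score. This score was averaged across arrays of the same protein sequence at different concentrations or buffers and across linkers, and negative values can be read as non-binding.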
# [2] = target: GlcNAc(b1-4)[GlcNAc(b1-6)]GalNAc
# In short: as §1
# [3] = target: GlcNAc(b1-6)Gal(b1-4)GlcNAc
# In short: as §1
# [4] = target: GlcNAc(b1-6)GalNAc
# In short: as §1
# [5] = target: GlcNAc6S(b1-3)Gal(b1-4)GlcNAc
# In short: as §1
# [6] = target: Kdn(a2-3)Gal(b1-3)GalNAc
# In short: as §1
# [7] = target: Kdn(a2-3)Gal(b1-3)GlcNAc
# In short: as §1
# [8] = target: Kdn(a2-3)Gal(b1-4)Glc
# In short: as §1
# [9] = target: Kdn(a2-3)Gal(b1-4)GlcNAc
# In short: as §1
# [10] = target: Kdn(a2-3)Gal(b1-4)[Fuc(a1-3)]GlcNAc
# In short: as §1
# [11] = target: Kdn(a2-6)Gal(b1-4)GlcNAc
# In short: as §1
# [12] = target: Man(a1-2)Man(a1-2)Man(a1-3)Man
# In short: as §1
# [13] = target: Man(a1-2)Man(a1-2)Man(a1-6)[Man(a1-3)]Man
# In short: as §1
# [14] = target: Man(a1-2)Man(a1-3)Man
# In short: as §1
# [15] = target: Man(a1-2)Man(a1-3)[Man(a1-2)Man(a1-6)]Man
# In short: as §1
# [16] = target: Man(a1-2)Man(a1-3)[Man(a1-2)Man(a1-6)]Man(a1-6)[Man(a1-2)Man(a1-2)Man(a1-3)]Man
# In short: as §1
# [17] = target: Man(a1-2)Man(a1-3)[Man(a1-2)Man(a1-6)]Man(a1-6)[Man(a1-2)Man(a1-2)Man(a1-3)]Man(b1-4)GlcNAc(b1-4)GlcNAc
# In short: as §1
# [18] = target: Man(a1-2)Man(a1-3)[Man(a1-6)]Man(a1-6)[Man(a1-2)Man(a1-3)]Man(b1-4)GlcNAc(b1-4)GlcNAc
# In short: as §1
# [19] = target: Man(a1-2)Man(a1-6)[Man(a1-3)]Man(a1-6)[Man(a1-2)Man(a1-2)Man(a1-3)]Man
# In short: as §1
# [20] = target: Man(a1-2)Man(a1-6)[Man(a1-3)]Man(a1-6)[Man(a1-2)Man(a1-2)Man(a1-3)]Man(b1-4)GlcNAc(b1-4)GlcNAc
# In short: as §1
# [21] = target: Man(a1-3)[Man(a1-6)]Man
# In short: as §1
# [22] = target: Man(a1-3)[Man(a1-6)]Man(a1-6)[Man(a1-2)Man(a1-3)]Man(b1-4)GlcNAc(b1-4)GlcNAc
# In short: as §1
# [23] = target: Man(a1-3)[Man(a1-6)]Man(a1-6)[Man(a1-3)]Man
# In short: as §1
# [24] = target: Man(a1-3)[Man(a1-6)]Man(a1-6)[Man(a1-3)]Man(b1-4)GlcNAc(b1-4)GlcNAc
# In short: as §1
# [25] = target: Man(a1-3)[Man(a1-6)]Man(b1-4)GlcNAc(b1-4)GlcNAc
# In short: as §1
# [26] = target: Man(a1-3)[Man(a1-6)]Man(b1-4)GlcNAc(b1-4)[Fuc(a1-6)]GlcNAc
# In short: as §1
# [27] = target: Man(a1-6)Man
# In short: as §1
# [28] = target: Man(b1-4)GlcNAc
# In short: as §1
# [29] = target: MurNAc(b1-4)GlcNAc
# In short: as §1
# [30] = target: Neu5Ac(a2-3)Gal
# In short: as §1
# [31] = target: Neu5Ac(a2-3)Gal(b1-3)GalNAc
# In short: as §1
# [32] = target: Neu5Ac(a2-3)Gal(b1-3)GalNAc(b1-3)Gal(a1-4)Gal(b1-4)Glc
# In short: as §1
# [33] = target: Neu5Ac(a2-3)Gal(b1-3)GalNAc(b1-4)[Neu5Ac(a2-3)]Gal(b1-4)Glc
# In short: as §1
# [34] = target: Neu5Ac(a2-3)Gal(b1-3)GalNAc(b1-4)[Neu5Ac(a2-8)Neu5Ac(a2-3)]Gal(b1-4)Glc
# In short: as §1
# [35] = target: Neu5Ac(a2-3)Gal(b1-3)GalNAc6S
# In short: as §1
# [36] = target: Neu5Ac(a2-3)Gal(b1-3)GlcNAc
# In short: as §1
# [37] = target: Neu5Ac(a2-3)Gal(b1-3)GlcNAc(b1-2)Man
# In short: as §1
binder,measurement,setting,value
RobpsCRA (Robinia pseudoacacia) (protein) IKGGYWYSGSGLAVSDINPSHFTHLFCAFADLDPNTNKLTISSSNAAAFSTFTQTVRAKNPSVKTLLSIGGGGGRALAAVFANMASQASRRKSFIDSSIQLARRNNFHGLDLDWEYPSSDIDKTNFASLIREWRAAVATESSTSGTPALLLSAAVGGSDQITPLKYYPGEAIANNLDWVNVMTYDLYTSDSYPTLTQPPAPLFYPRGIFSADEGITKWIQSGVPESKLALGLPFYGFKWRLSDPNNHGLFAPATQGLGAVKYKDIVNTGGQVEFDSTYVTNYCFKGTDWYGYDDTQSISAKVAYAKQRGLFGYFAWHIEQDSNWALS,glycan array binding signal (z-score),[1],-0.175
same,glycan array binding signal (z-score),[2],-0.134
same,glycan array binding signal (z-score),[3],-0.959
same,glycan array binding signal (z-score),[4],-0.383
same,glycan array binding signal (z-score),[5],-0.663
same,glycan array binding signal (z-score),[6],-0.273
same,glycan array binding signal (z-score),[7],-0.429
same,glycan array binding signal (z-score),[8],-0.758
same,glycan array binding signal (z-score),[9],-0.696
same,glycan array binding signal (z-score),[10],0.161
same,glycan array binding signal (z-score),[11],-0.742
same,glycan array binding signal (z-score),[12],-0.644
same,glycan array binding signal (z-score),[13],-0.465
same,glycan array binding signal (z-score),[14],-0.397
same,glycan array binding signal (z-score),[15],-0.812
same,glycan array binding signal (z-score),[16],0.574
same,glycan array binding signal (z-score),[17],-0.222
same,glycan array binding signal (z-score),[18],0.232
same,glycan array binding signal (z-score),[19],-0.566
same,glycan array binding signal (z-score),[20],-0.336
same,glycan array binding signal (z-score),[21],-0.303
same,glycan array binding signal (z-score),[22],-0.043
same,glycan array binding signal (z-score),[23],-0.085
same,glycan array binding signal (z-score),[24],-0.146
same,glycan array binding signal (z-score),[25],0.109
same,glycan array binding signal (z-score),[26],0.253
same,glycan array binding signal (z-score),[27],-0.199
same,glycan array binding signal (z-score),[28],-0.315
same,glycan array binding signal (z-score),[29],-0.389
same,glycan array binding signal (z-score),[30],-0.218
same,glycan array binding signal (z-score),[31],0.289
same,glycan array binding signal (z-score),[32],-0.405
same,glycan array binding signal (z-score),[33],-0.151
same,glycan array binding signal (z-score),[34],-0.829
same,glycan array binding signal (z-score),[35],0.285
same,glycan array binding signal (z-score),[36],0.156
same,glycan array binding signal (z-score),[37],-0.298

# Reprinted at random: three entries already listed, in no set order.
binder,measurement,setting,value
RobpsCRA (Robinia pseudoacacia) (protein) IKGGYWYSGSGLAVSDINPSHFTHLFCAFADLDPNTNKLTISSSNAAAFSTFTQTVRAKNPSVKTLLSIGGGGGRALAAVFANMASQASRRKSFIDSSIQLARRNNFHGLDLDWEYPSSDIDKTNFASLIREWRAAVATESSTSGTPALLLSAAVGGSDQITPLKYYPGEAIANNLDWVNVMTYDLYTSDSYPTLTQPPAPLFYPRGIFSADEGITKWIQSGVPESKLALGLPFYGFKWRLSDPNNHGLFAPATQGLGAVKYKDIVNTGGQVEFDSTYVTNYCFKGTDWYGYDDTQSISAKVAYAKQRGLFGYFAWHIEQDSNWALS,glycan array binding signal (z-score),[15],-0.812
same,glycan array binding signal (z-score),[13],-0.465
same,glycan array binding signal (z-score),[12],-0.644
